{"source": "paper PMC7496117", "about": "“A zinc finger protein BBX19 interacts with ABF3 to affect drought tolerance negatively in chrysanthemum”", "tested_on": "GST-CmBBX19 (Chrysanthemum morifolium)", "assay": "EMSA", "settings": "3 ug protein, LightShift Chemiluminescent EMSA kit, 20 ul reaction, biotin probe 50 nM or 2 nM (Methods), pH and temperature not stated, recombinant protein, protein details: GST (N-terminal, pGEX)", "note": "The exact form of at least one protein or probe is not confirmed. No signal at the amounts used counts as a negative.", "data": [{"sequence": "GAAATTAGACACGTACTTTTCAGTGATAACATAAACATACTTACGTGTTC (double strand) [proRAB18-probe (CmRAB18 promoter, two ABRE motifs)]", "values": [{"measurement": "binding result", "value": "no binding"}]}]}
